# According to PMC8384837:
# Positions count from the first letter of the chain named. The list shows a part of the results. At the low end of the ranking, values are background and their order means little.
# Experiments:
# Conditions in all cases: yeast three-hybrid, YBZ-1, SC-Leu-His + 0.5 mM 3-AT, 4 days
# [1] = molecular target: T1, PUM1 PUF domain R6-TWV N1043T + Y1044W + Q1047V (UniProt Q14671)
# T1 sequence: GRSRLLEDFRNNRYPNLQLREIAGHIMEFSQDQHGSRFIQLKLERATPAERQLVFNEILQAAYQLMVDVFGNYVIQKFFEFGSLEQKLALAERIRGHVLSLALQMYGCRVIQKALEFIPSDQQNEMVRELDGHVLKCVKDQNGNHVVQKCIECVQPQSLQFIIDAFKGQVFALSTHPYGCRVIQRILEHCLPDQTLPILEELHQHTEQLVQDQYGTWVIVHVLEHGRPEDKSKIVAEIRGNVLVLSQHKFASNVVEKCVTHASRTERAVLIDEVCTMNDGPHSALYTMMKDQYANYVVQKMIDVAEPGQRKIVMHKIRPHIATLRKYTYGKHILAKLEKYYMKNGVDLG
# [2] = molecular target: T2, PUM1 PUF domain R6-TYR N1043T + Q1047R (UniProt Q14671)
# T2 sequence: T1 sequence with W217Y, V220R
# [3] = molecular target: T3, PUM1 PUF domain R6-VFA N1043V + Y1044F + Q1047A (UniProt Q14671)
# T3 sequence: T1 sequence with T216V, W217F, V220A
# [4] = molecular target: T4, PUM1 PUF domain R6-VFK N1043V + Y1044F + Q1047K (UniProt Q14671)
# T4 sequence: T1 sequence with T216V, W217F, V220K
# [5] = molecular target: T5, PUM1 PUF domain R6-VFL N1043V + Y1044F + Q1047L (UniProt Q14671)
# T5 sequence: T1 sequence with T216V, W217F, V220L
# [6] = molecular target: T6, PUM1 PUF domain R6-VFR N1043V + Y1044F + Q1047R (UniProt Q14671)
# T6 sequence: T1 sequence with T216V, W217F, V220R
# [7] = molecular target: T7, PUM1 PUF domain R6-VWA N1043V + Y1044W + Q1047A (UniProt Q14671)
# T7 sequence: T1 sequence with T216V, V220A
# [8] = molecular target: T8, PUM1 PUF domain R6-VWC N1043V + Y1044W + Q1047C (UniProt Q14671)
# T8 sequence: T1 sequence with T216V, V220C
# [9] = molecular target: T9, PUM1 PUF domain R6-VWH N1043V + Y1044W + Q1047H (UniProt Q14671)
# T9 sequence: T1 sequence with T216V, V220H
# [10] = molecular target: T10, PUM1 PUF domain R6-VWQ N1043V + Y1044W (UniProt Q14671)
# T10 sequence: T1 sequence with T216V, V220Q
# [11] = molecular target: T11, PUM1 PUF domain R6-VWS N1043V + Y1044W + Q1047S (UniProt Q14671)
# T11 sequence: T1 sequence with T216V, V220S
# [12] = molecular target: T12, PUM1 PUF domain R6-VWT N1043V + Y1044W + Q1047T (UniProt Q14671)
# T12 sequence: T1 sequence with T216V, V220T
# [13] = molecular target: T13, PUM1 PUF domain R6-VWV N1043V + Y1044W + Q1047V (UniProt Q14671)
# T13 sequence: T1 sequence with T216V
# [14] = molecular target: T14, PUM1 PUF domain R6-VYG N1043V + Q1047G (UniProt Q14671)
# T14 sequence: T1 sequence with T216V, W217Y, V220G
# [15] = molecular target: T15, PUM1 PUF domain R6-VYL N1043V + Q1047L (UniProt Q14671)
# T15 sequence: T1 sequence with T216V, W217Y, V220L
# [16] = molecular target: T16, PUM1 PUF domain R6-VYR N1043V + Q1047R (UniProt Q14671)
# T16 sequence: T1 sequence with T216V, W217Y, V220R
# [17] = molecular target: T17, PUM1 PUF domain R6-WHG N1043W + Y1044H + Q1047G (UniProt Q14671)
# T17 sequence: T1 sequence with T216W, W217H, V220G
# [18] = molecular target: T18, PUM1 PUF domain R6-WHR N1043W + Y1044H + Q1047R (UniProt Q14671)
# T18 sequence: T1 sequence with T216W, W217H, V220R
# [19] = molecular target: T19, PUM1 PUF domain R6-WWS N1043W + Y1044W + Q1047S (UniProt Q14671)
# T19 sequence: T1 sequence with T216W, V220S
# [20] = molecular target: T20, PUM1 PUF domain R6-WYR N1043W + Q1047R (UniProt Q14671)
# T20 sequence: T1 sequence with T216W, W217Y, V220R
sequence,measurement,setting,value
GGCUAGAACUAGUGGAUCCCCCGGCGCCCGGCGGCUCGAGCCCGGGUAAGUGGAAAUAGUCUGCAUGCCGCCGGGCGCCAUGCCUGCAGGUCGACUCUAGAAAACAUG,binding signal (log2 enrichment (interaction score)),[1],< -8.72
same,binding signal (log2 enrichment (interaction score)),[2],< -7.93
same,binding signal (log2 enrichment (interaction score)),[3],-5.74
same,binding signal (log2 enrichment (interaction score)),[4],< -7.92
same,binding signal (log2 enrichment (interaction score)),[5],< -8.42
same,binding signal (log2 enrichment (interaction score)),[6],< -9.04
same,binding signal (log2 enrichment (interaction score)),[7],< -8.77
same,binding signal (log2 enrichment (interaction score)),[8],< -6.28
same,binding signal (log2 enrichment (interaction score)),[9],< -6.88
same,binding signal (log2 enrichment (interaction score)),[10],< -7.68
same,binding signal (log2 enrichment (interaction score)),[11],< -9.9
same,binding signal (log2 enrichment (interaction score)),[12],< -7.92
same,binding signal (log2 enrichment (interaction score)),[13],< -6.62
same,binding signal (log2 enrichment (interaction score)),[14],< -6.45
same,binding signal (log2 enrichment (interaction score)),[15],< -7.79
same,binding signal (log2 enrichment (interaction score)),[16],< -8.48
same,binding signal (log2 enrichment (interaction score)),[17],< -9.13
same,binding signal (log2 enrichment (interaction score)),[18],< -8.7
same,binding signal (log2 enrichment (interaction score)),[19],< -7.85
same,binding signal (log2 enrichment (interaction score)),[20],< -8.8

# Some of the entries so far, bar-delimited.
sequence | measurement | setting | value
GGCUAGAACUAGUGGAUCCCCCGGCGCCCGGCGGCUCGAGCCCGGGUAAGUGGAAAUAGUCUGCAUGCCGCCGGGCGCCAUGCCUGCAGGUCGACUCUAGAAAACAUG | binding signal (log2 enrichment (interaction score)) | [19] | < -7.85
same | binding signal (log2 enrichment (interaction score)) | [20] | < -8.8
